# Assay: Example 1: elimination of PRCs from PE passive sampling devices deployed 14 days in marine aquatic sediment
# Format: physicochemical
# Excerpt: Twenty PSDs were created (each consisting of a 4×10 cm piece of PE). Ten of the PSDs were spiked with PCB-36 (which is not visibly detectable) and ten of the PSDs were spiked with Sudan III, a visibly detectable PRC within the scope of the present disclosure. The 20 spiked PSDs then were inserted in the top 10 cm of aquatic sediment at a marine (ocean) site by scuba divers at ten locations within a half-acre area. At each of the 10 locations, one PSD containing PCB-36 and one PSD containing Sudan III were deployed.
# After 14 days, the PSDs were collected by divers, brought to the surface, placed in a shipping container, and sent to a laboratory, where they were wiped with moistened tissues, placed in small vials, and extracted with solvent. PSDs submitted for PCB analysis were extracted in a 1:1 aliquot (e.g., 50 mL) of a solvent of methylene chloride and hexane, and PSDs submitted for Sudan III analysis were extracted in 10 mL hexane solvent. Three PSDs containing Sudan III that were not deployed (i.e., were not placed in the sediment, but retained in storage) were also extracted in the same manner, and three PSDs containing PCB-36 that were not deployed (i.e., were not placed in the sediment, but retained in storage) were also extracted in the same manner. These 6 samples are referred to as “trip blanks”. The 13 solvents (from extraction of 10 exposed PSDs and 3 trip blanks PSDs) into which the PCB-36-spiked PSDs were extracted were then measured for PCBs using high-resolution gas chromatography/high-resolution mass spectrometry with an approximate 30- to 60-minute analysis time per sample. Via this analysis, the concentrations of PCB-36 in the 13 PCB-36-spiked PSDs were determined. The 13 solvents (from extraction of 10 exposed PSDs and 3 trip blanks PSDs) into which the Sudan III-spiked PSDs were extracted were measured for Sudan III on a benchtop UV/Vis spectrometer set to a wavelength of 507 nm, with an analysis time of approximately 1-2 minutes per sample. Via this analysis, the concentration of Sudan III in the 13 Sudan III-spiked PSDs was determined.
# The “sampling rate” of the PSD is expressed numerically as a term referred to as the elimination rate (ke). ke values can be calculated using the following equation (Lohmann, supra): […]
# Because of this, the kinetics of depuration and absorption for these two chemicals can be assumed to be approximately equal. […] The general equation to estimate the steady state concentration of an analyte using a ke value and a measured pre-steady state concentration of an analyte is (Lohmann, supra): […]
compound,measurement,setting,value
Clc1cccc(-c2cc(Cl)cc(Cl)c2)c1 [PCB-36],time t concentration of PCB-36 in PSD,"Station 6, 14 days",110 ng PCB-36/g PE
Clc1cccc(-c2ccc(Cl)c(Cl)c2)c1 [PCB-35],time t concentration of PCB-35 absorbed from sediment into PSD,"Station 6, 14 days",0.14 ng PCB-35/g PE
Oc1ccc2ccccc2c1N=Nc1ccc(N=Nc2ccccc2)cc1 [Sudan III],agreement of average Log10 ke values for Sudan III and PCB-36,"10 stations, not statistically different (P=0.08)",≤ 14%
same,time t concentration of Sudan III in PSD,"Station 6, 14 days",21 mg Sudan III/g PE

# From patent US20170115265A1, “Use of Visibly Detectable Compounds as Performance Reference Compounds in Passive Sampling Devices” (Geosyntec Consultants, Inc., priority 2015, published 2017)
